Measurements published in PMC9927405.

Columns and labels:
[1] = biological target: T1, Neospora caninum mitochondrial glutaredoxin 5, HA-tagged (NcGRX5-HA) (Neospora caninum) (UniProt F0VJR9); experiment: co-IP; NcGRX5-HA precipitated with HA magnetic beads from doubly tagged parasites lysed in nondenaturing lysis buffer with ultrasonication; 2 h at 4 °C, five washes; blots with anti-FLAG, anti-HA and anti-actin
T1 sequence: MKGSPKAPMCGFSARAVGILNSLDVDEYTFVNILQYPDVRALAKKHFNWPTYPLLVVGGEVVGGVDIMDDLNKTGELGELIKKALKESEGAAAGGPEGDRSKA

[2] = biological target: Cysteine desulfurase ISCS of N. caninum, FLAG-tagged (ISCS-FLAG) (Neospora caninum); experiment: co-IP; FLAG-tagged ISCS or ISCU1 precipitated with FLAG magnetic beads from doubly tagged parasites lysed in nondenaturing lysis buffer with ultrasonication; 2 h at 4 °C, five washes; blots with anti-FLAG, anti-HA and anti-actin
[3] = biological target: Scaffold protein ISCU1 of N. caninum, FLAG-tagged (ISCU1-FLAG) (Neospora caninum); experiment: as above

Cysteine desulfurase ISCS of N. caninum, FLAG-tagged (ISCS-FLAG) (Neospora caninum)
binding [1]: binds

HSP70 SSQ1 of N. caninum, FLAG-tagged (SSQ1-FLAG) (Neospora caninum)
binding [1]: no binding

Scaffold protein ISCU1 of N. caninum, FLAG-tagged (ISCU1-FLAG) (Neospora caninum)
binding [1]: binds

Scaffold protein ISCU2 of N. caninum, FLAG-tagged (ISCU2-FLAG) (Neospora caninum)
binding [1]: no binding

B1: Neospora caninum mitochondrial glutaredoxin 5, HA-tagged (NcGRX5-HA) (protein, UniProt F0VJR9 1-103)
chain: T1 sequence
binding [2]: binds
binding [3]: binds

These are yes or no findings as the source states them, for the method shown. Binding seen in cells or lysates may run through a third protein. A result given as binding can be weak or reduced; the word gives no strength. Tags and fused reporters may be left off the sequences shown.
